Assay results published in patent US10662193B2, “Carbazole and carboline compounds for use in the diagnosis, treatment, alleviation or prevention of disorders associated with amyloid or amyloid-like proteins” (AC IMMUNE SA, priority 2014, dated 2020).
The structures given here were assigned with low confidence; some may be wrong.

The chains behind the UniProt entries cited, without tags or fusion partners. Residues count along the entry.
UniProt P10636, 623-708 limits assumed: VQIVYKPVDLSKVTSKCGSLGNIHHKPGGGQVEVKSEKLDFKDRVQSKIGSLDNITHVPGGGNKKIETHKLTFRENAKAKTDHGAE

What was measured:
[1] = system: tau tangles/Aβ plaques on AD brain sections; assay: Assay 1: direct staining of human Alzheimer's disease brain sections (fluorescence); details: 100 μM compound, cell does not say tangles or plaques
Method: Assay 1 (Fluorescence Based Assay):
(§1) Direct Binding of Compounds of this Invention to Human Alzheimer's Disease Brain Sections and/or Displacement of RefA and Compound B
(§2) Frozen sections with a thickness of […] from the amygdala of donors diagnosed with Braak stage V-VI Alzheimer's Disease (Braak, H.; Braak, E. Acta Neuropathol., 1991, 82, 239-259), were purchased from a commercial provider (Tissue Solutions) and kept at −80° C. until use.
Direct Staining of Human Alzheimer's Disease Brain Sections
Brain sections were encircled with pap pen liquid blocker to reduce the volume of solution for the different incubations. Sections were fixed for 15 min at 4° C. with 4% paraformaldehyde and washed three times 5 minutes with PBS at room temperature. […] To reduce the auto-fluorescence of the tissue, the sections were incubated in a solution of 0.1% Sudan Black (Sigma 199664) in 70% ethanol for 15 min at room temperature in the dark, washed four times for 5 minutes with PBS, and mounted using ProLong Gold Antifade reagent (Invitrogen P36930). Sections were then analyzed on the Nikon Eclipse Ti microscope to detect staining and imaged using Nikon DS-Fi2 camera and NIS-Element AR4.13.1 software.

[2] = system: tau tangles on AD brain section; assay: Assay 1: displacement of RefA on human AD brain sections (fluorescence)
Method: as §1, §2
Displacement of RefA and Compound B
Brain sections were mainly treated as described above. Test compounds were, however, incubated on the section at 250 μM in 50% ethanol for 20 min at room temperature, and then directly incubated with the fluorescent reference compounds RefA and Compound B, each at 1 μM in 50% ethanol for 20 min at room temperature. RefA and Compound B stainings were visualized using the 470 nm and 365 nm excitation filters, respectively. Images were acquired, and tangles and plaques quantified using the NIS-Element software. Only those compounds not directly staining tangles or plaques at the same wavelengths as RefA and Compound B were tested in the displacement assay.
Structure of RefA (Tago et al., J. Label. Compd. Radiopharm. 2013, DOI: 10.1002/jlcr.3133)

AD brain-enriched PHF [3] = target: T1, AD brain-enriched PHF (Homo sapiens, UniProt P10636); assay: Assay 2 (filter trap): radio-binding assay, determination of the dissociation constant (Kd) on PHF; details: tritiated ligand 1.25-50 nM, PHF diluted 1/80, 45 min 37° C.
Method: Enrichment of Paired Helical Filaments (PHF's) from Human Alzheimer's Disease Brain
(§3) 50 g of frontal lobe tissue from post-mortem brain of an Alzheimer's disease (AD) patient were obtained from the London Tissue Bank. The patient was a […] and died […]. The brain sample was collected 5 hours post-mortem and characterized for Braak disease stage (Braak, H.; Braak, E. Acta Neuropathol., 1991, 82, 239-259) as stage VI. […]
AD brain-enriched PHF were diluted 1/80 (with an estimated tau concentration of 62.5 ng/ml and incubated with [^3H]RefA at different concentrations ranging from 50 nM to 1.25 nM. The reaction was performed in a final volume of 70 μL PBS with 2.8% DMSO, for 45 min at 37° C. 30 μL of samples in duplicates were then filtered under vacuum on a GF/B filter plate (PerkinElmer 6005177) to trap the PHF with the bound radio-ligand, and washed three times with PBS. The GF/B filters were then vacuum-dried, 20 μL scintillation liquid (PerkinElmer 1200-436) was added in each well, and the filters were analyzed on a Microbeta Trilux device. […] Specific binding was calculated by subtracting the non-specific signal to the total signal. […] The Kd values were calculated by nonlinear regression, one site specific binding using Prism V5 (GraphPad). […]

AD brain-enriched PHF [4] = target: T1, AD brain-enriched PHF; assay: Assay 2 (filter trap): [3H]RefA radio-binding competition assay and Ki on PHF; details: read-out: [^3H]RefA competition [Ki]; [^3H]RefA 10 nM, PHF diluted 1/80, compound 0.12 nM to 50 μM
Method: Displacement of [^3H]RefA by Compounds of this Invention
as §3
AD brain-enriched PHF diluted 1/80 were incubated in the presence of [^3H]RefA at 10 nM and the example compounds of this invention at 2.5 μM (250× excess), for 45 minutes at 37° C. Samples were then analyzed by on GF/B filter plates as described above (in the section “[^3H]RefA radio-binding assay and determination of the dissociation constant (Kd)). Non-specific signal was determined again with an excess of un-labeled RefA and specific binding calculated by subtracting the non-specific signal from the total signal. Competition was calculated as percent, where 0% was defined as the specific binding in the presence of vehicle (2.8% DMSO in PBS) and 100% as the values obtained in the presence of excess cold RefA. […]
Samples were then analyzed on GF/B filter plates as described above and Ki values calculated using Prism V5 (GraphPad).

[5] = target: Tau enriched paired helical filaments (PHF) from human Alzheimer's disease (AD) brains (Homo sapiens, UniProt P10636); assay: Assay 3: backscattering interferometry, dissociation constants (Kd); details: read-out: [Kd] on PHF batch 6; PHF batch 6 (pooled frontal cortex, 25 AD patients)
Source text: Assay 3 (Backscattering Interferometry):
Determination of Dissociation Constants (Kd) of Compounds of this Invention
Enrichment of Paired Helical Filaments (PHF's) from Human Alzheimer's Disease Brains
For backscattering interferometry, Tau enriched paired helical filaments (PHF) from human Alzheimer's disease (AD) brains were used as a target. Due to the limited availability of tissues, to determine dissociation constants (Kd) of compounds of this invention to the target, two different batches of enriched PHF were used. These batches are identified as batch 6 and 7 and were prepared as follows.
PHF batch number 6 was prepared starting from 25 g frontal cortical tissue from post-mortem brains of 25 Alzheimer's disease (AD) patients which were obtained from the London Tissue Bank. The mean age at death for the AD patients was 76 years (48% females). Brain samples were characterized for Braak disease stage (Braak and Braak, 1991), with most donors displaying a stage VI. The postmortem interval between death and brain dissection was between 6 and 65 h. Human brain homogenates were prepared by SB Drug Discovery (Glasgow, Scotland, UK) from the post-mortem cortical tissue of the 25 patients). […]

With `CN1CCc2c(c3ccc(Nc4ccc(F)c(F)c4)nc3n2C)C1=O` the “Direct staining of tau tangles/Aβ plaques on AD brain sections at 100 μM” value [1] was “−”, the “Competition on AD brain section tau tangles (1 μM RefA vs. 250 μM compound)” value [2] was 26% and the Kd (AD brain-enriched PHF [3]) was 43 nM. The Ki (AD brain-enriched PHF [4]) was 719 nM and the Kd [5] was 32 nM.
